Assay results: publication PMC11156954, “Inhibition and transport mechanisms of the ABC transporter hMRP5” (Nature Communications, 2024)

Assays:
R motif of hMRP5 = assay: Protein lipid overlay (lipid strip) assay, R motif; format: binding, human; conditions: Membrane Lipid Strips, 100 pmol lipid per spot, 0.25 µg/ml protein, 1 h, anti-strep immunoblot
wt-hMRP5 = assay: MST binding assay, wt-hMRP5; set-up: species or system human; conditions: three independent measurements

Molecule | lipid binding of purified R motif, in words (R motif of hMRP5) | binding affinity to wt-hMRP5, in words (wt-hMRP5)
PI(4)P | strongly bound | 
C[C@]12CC[C@H]3[C@@H](CCC4=CC(=O)CC[C@@]43C)[C@@H]1CC[C@@H]2O [testosterone] |  | low binding affinities
phosphatidylinositol 4,5-bisphosphate | relatively weak affinity | 
Nc1nc2c(ncn2[C@@H]2O[C@@H]3COP(=O)(O)O[C@H]3[C@H]2O)c(=O)[nH]1 [cGMP, cyclic GMP] |  | low binding affinities
phosphatidic acid [PA] | strongly bound | 
CC(=O)[C@H]1CC[C@H]2[C@@H]3CCC4=CC(=O)CC[C@]4(C)[C@H]3CC[C@]12C [progesterone] |  | low binding affinities
phosphatidylserine [PS] | rarely interacting | 
CCCCCCCC(=O)OC[C@H](COP(=O)(O)OC1[C@H](O)[C@H](OP(=O)(O)O)C(O)[C@H](OP(=O)(O)O)[C@H]1O)OC(=O)CCCCCCC (stereo partly shown) [phosphatidylinositol 3,5-bisphosphate] | relatively weak affinity | 
CCCCCCCCCCCCCCCC(=O)OC[C@H](COP(=O)(O)O[C@@H]1[C@H](O)[C@H](OP(=O)(O)O)[C@@H](O)[C@H](O)[C@H]1O)OC(=O)CCCCCCCCCCCCCCC [phosphatidylinositol 3-phosphate] | strongly bound | 
phosphatidylinositol 5-phosphate | strongly bound | 
